For at least one compound, name, drawing or mass did not settle the structure.
Assays:
MCP-1 [1] = test: MCP-1 protein secretion into conditioned medium of differentiated 3T3-L1 adipocytes (ELISA); assay type: cell-based, mouse; conditions: 1-50 μM, Table 2 and FIG. 2
Description: (§1) First, two types of culture media indicated below, i.e. a differentiation induction culture medium and a differentiation enhancing culture medium, were prepared.
(§2) (Composition: 0.25 μM DEX, 0.5 mM MIX, 10 μg/mL insulin/10% FBS-containing DMEM)
First, 55 mL of FBS (fetal bovine serum (manufactured by GIBCO)) was added to 500 mL of DMEM (manufactured by SIGMA), and thereby 10% FBS-containing DMEM was prepared. Thereafter, 138.75 μL of 1 mM DEX (dexamethasone)-containing DMSO (manufactured by Nacalai Tesque, Inc.) and 555 μL of 10 mg/mL insulin-containing PBS (manufactured by SIGMA) were added thereto. The insulin-containing PBS was prepared as follows. […]
(§3) Subsequently, frozen cultured preadipocyte 3T3-L1 was thawed and was plated on the culture medium placed in a 100-mm dish. […] Subsequently, using a Light/Cycler®, the levels of mRNA expression of MCP-1 and 36B4, […], were measured. […]
Furthermore, the culture medium obtained eight days after the start of differentiation induction was collected in an amount of 1 mL from each well. Using an ELISA kit (manufactured by BD Bioscience, trade name: BD OptEIA Set Mouse MCP-1), the amount of MCP-1 (protein abundance) in the conditioned medium was measured according to the manual of the kit. […]

MCP-1 [2] = test: Suppression of MCP-1 mRNA expression in differentiated 3T3-L1 adipocytes (Light Cycler quantitative determination, ratio to 36B4); assay type: cell-based, mouse; conditions: 5-50 μM, Table 1 and FIG. 1
Description: as §1, §2
First, 55 mL of FBS (fetal bovine serum (manufactured by GIBCO)) was added to 500 mL of DMEM (manufactured by SIGMA), and thereby 10% FBS-containing DMEM was prepared. Thereafter, 138.75 μL of 1 mM DEX (dexamethasone)-containing DMSO (manufactured by Nacalai Tesque, Inc.) and 555 μL of 10 mg/mL insulin-containing PBS (manufactured by SIGMA) were added thereto. The insulin-containing PBS was prepared as follows. That is, 1N HCl was added to PBS beforehand, so that PBS acidified to a degree that allowed insulin to dissolve therein, and thereafter insulin was dissolved therein. MIX (3-Isobutyl-1-methylxanthine) (manufactured by Nacalai Tesque, Inc.) was added to a required amount of the culture medium immediately before use so as to be 0.5 mM. Thus a differentiation induction culture medium was prepared. […]
as §3

With `CC(C)=CCC/C(C)=C/COc1ccc2ccc(=O)oc2c1` [Example 1, auraptene] the “Suppression of the expression of MCP-1 at a protein level (result in words)” value (MCP-1 [1]) was “dose-dependently suppress the expression of MCP-1 at a protein level” and the “Suppression of the expression of MCP-1 at a genetic level (result in words)” value (MCP-1 [2]) was “dose-dependently suppress the expression of MCP-1 at a genetic level”.

— patent US20090118361A1, “SUPPRESSOR OF EXPRESSION OF MCP-1, AND AMELIORATING AGENT FOR INFLAMMATORY DISEASE, PHARMACEUTICAL, SUPPLEMENT, FOOD, BEVERAGE OR FOOD ADDITIVE USING THE SUPPRESSOR” (ARKRAY, INC., priority 2006, published 2009)
